Measurements taken from paper doi:10.1101/2021.12.21.473719.
These are yes or no findings as the source states them, for the method shown. In cells and extracts the contact can be indirect. Some binding calls cover weakened binding; strength is not graded here. For part of these data: Tags and fused reporters may be left off the sequences shown.

Legend:
POPDC2-Myc (mouse) = target: T1, POPDC2-Myc (mouse) (UniProt Q9ES82); assay: proximity ligation
T1 sequence: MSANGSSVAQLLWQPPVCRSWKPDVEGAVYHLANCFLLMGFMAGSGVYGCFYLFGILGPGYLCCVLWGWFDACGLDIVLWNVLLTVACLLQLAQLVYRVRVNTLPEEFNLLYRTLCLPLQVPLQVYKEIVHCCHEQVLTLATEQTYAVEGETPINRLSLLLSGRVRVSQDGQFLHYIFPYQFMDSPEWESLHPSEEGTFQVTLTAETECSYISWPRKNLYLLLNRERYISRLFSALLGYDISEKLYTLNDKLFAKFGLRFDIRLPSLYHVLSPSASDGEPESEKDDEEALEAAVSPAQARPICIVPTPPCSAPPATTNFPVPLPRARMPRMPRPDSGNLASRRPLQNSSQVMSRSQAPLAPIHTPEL

[1] = target: POPDC1-Myc (Popeye domain-containing protein 1, Myc-tagged) (mouse) (UniProt Q9ES83); assay: proximity ligation
[2] = target: T2, Flag-tagged AC9 (adenylyl cyclase type 9) (UniProt O60503); assay: co-IP
T2 sequence: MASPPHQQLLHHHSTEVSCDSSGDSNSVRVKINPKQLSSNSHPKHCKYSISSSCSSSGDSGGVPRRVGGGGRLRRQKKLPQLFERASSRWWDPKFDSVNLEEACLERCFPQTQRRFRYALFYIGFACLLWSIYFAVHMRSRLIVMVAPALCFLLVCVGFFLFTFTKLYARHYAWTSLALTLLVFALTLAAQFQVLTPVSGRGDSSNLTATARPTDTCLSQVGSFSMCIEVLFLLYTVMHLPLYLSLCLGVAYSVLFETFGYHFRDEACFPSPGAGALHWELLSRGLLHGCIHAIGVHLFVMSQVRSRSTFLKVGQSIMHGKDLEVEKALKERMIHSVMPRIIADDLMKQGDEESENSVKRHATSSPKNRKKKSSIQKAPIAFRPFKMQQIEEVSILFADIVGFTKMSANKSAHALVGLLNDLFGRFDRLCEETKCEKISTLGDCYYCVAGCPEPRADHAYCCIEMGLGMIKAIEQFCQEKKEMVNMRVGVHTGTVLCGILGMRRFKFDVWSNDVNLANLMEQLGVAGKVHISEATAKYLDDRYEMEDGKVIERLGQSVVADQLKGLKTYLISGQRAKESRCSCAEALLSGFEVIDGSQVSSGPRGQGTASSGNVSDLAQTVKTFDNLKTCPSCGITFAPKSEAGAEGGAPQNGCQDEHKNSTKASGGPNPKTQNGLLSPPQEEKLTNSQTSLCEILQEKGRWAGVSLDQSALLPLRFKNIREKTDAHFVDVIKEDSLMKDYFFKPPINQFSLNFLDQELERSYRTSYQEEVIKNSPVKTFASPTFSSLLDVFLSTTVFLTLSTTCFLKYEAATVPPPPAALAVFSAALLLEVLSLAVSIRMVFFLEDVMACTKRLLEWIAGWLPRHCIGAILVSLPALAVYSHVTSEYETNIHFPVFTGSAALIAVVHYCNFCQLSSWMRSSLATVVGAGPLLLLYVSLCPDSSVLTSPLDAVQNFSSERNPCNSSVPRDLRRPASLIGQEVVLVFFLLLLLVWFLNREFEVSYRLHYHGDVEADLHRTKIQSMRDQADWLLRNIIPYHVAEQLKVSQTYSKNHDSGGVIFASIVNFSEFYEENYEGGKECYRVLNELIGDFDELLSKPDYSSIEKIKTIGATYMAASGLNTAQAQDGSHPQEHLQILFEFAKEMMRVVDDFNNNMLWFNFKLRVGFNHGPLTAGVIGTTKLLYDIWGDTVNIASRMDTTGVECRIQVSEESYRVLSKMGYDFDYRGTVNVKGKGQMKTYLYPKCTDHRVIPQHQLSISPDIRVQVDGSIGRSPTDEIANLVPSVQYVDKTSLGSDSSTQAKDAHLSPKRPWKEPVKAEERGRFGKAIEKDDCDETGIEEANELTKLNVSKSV

[3] = target: POPDC1-Myc (Popeye domain-containing protein 1, Myc-tagged) (mouse) (UniProt Q9ES83); assay: co-IP
[4] = target: T3, POPDC1-VN / POPDC1-VC (mouse POPDC1 with a half of Venus for BiFC) (mouse) (UniProt Q9ES83); assay: split reporter
T3 sequence: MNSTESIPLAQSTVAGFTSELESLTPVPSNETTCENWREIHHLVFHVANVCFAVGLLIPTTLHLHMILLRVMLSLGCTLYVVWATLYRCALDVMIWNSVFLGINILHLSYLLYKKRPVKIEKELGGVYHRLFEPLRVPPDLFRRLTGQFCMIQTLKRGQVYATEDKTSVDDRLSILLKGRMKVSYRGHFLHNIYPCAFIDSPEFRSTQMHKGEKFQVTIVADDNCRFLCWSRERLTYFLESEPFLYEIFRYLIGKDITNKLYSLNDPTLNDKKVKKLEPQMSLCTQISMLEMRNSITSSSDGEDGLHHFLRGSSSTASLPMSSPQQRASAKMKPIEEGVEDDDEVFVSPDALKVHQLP

B1: YFP-tagged AC9 (enzyme, UniProt O60503 1-1353)
chain: MASPPHQQLLHHHSTEVSCDSSGDSNSVRVKINPKQLSSNSHPKHCKYSISSSCSSSGDSGGVPRRVGGGGRLRRQKKLPQLFERASSRWWDPKFDSVNLEEACLERCFPQTQRRFRYALFYIGFACLLWSIYFAVHMRSRLIVMVAPALCFLLVCVGFFLFTFTKLYARHYAWTSLALTLLVFALTLAAQFQVLTPVSGRGDSSNLTATARPTDTCLSQVGSFSMCIEVLFLLYTVMHLPLYLSLCLGVAYSVLFETFGYHFRDEACFPSPGAGALHWELLSRGLLHGCIHAIGVHLFVMSQVRSRSTFLKVGQSIMHGKDLEVEKALKERMIHSVMPRIIADDLMKQGDEESENSVKRHATSSPKNRKKKSSIQKAPIAFRPFKMQQIEEVSILFADIVGFTKMSANKSAHALVGLLNDLFGRFDRLCEETKCEKISTLGDCYYCVAGCPEPRADHAYCCIEMGLGMIKAIEQFCQEKKEMVNMRVGVHTGTVLCGILGMRRFKFDVWSNDVNLANLMEQLGVAGKVHISEATAKYLDDRYEMEDGKVIERLGQSVVADQLKGLKTYLISGQRAKESRCSCAEALLSGFEVIDGSQVSSGPRGQGTASSGNVSDLAQTVKTFDNLKTCPSCGITFAPKSEAGAEGGAPQNGCQDEHKNSTKASGGPNPKTQNGLLSPPQEEKLTNSQTSLCEILQEKGRWAGVSLDQSALLPLRFKNIREKTDAHFVDVIKEDSLMKDYFFKPPINQFSLNFLDQELERSYRTSYQEEVIKNSPVKTFASPTFSSLLDVFLSTTVFLTLSTTCFLKYEAATVPPPPAALAVFSAALLLEVLSLAVSIRMVFFLEDVMACTKRLLEWIAGWLPRHCIGAILVSLPALAVYSHVTSEYETNIHFPVFTGSAALIAVVHYCNFCQLSSWMRSSLATVVGAGPLLLLYVSLCPDSSVLTSPLDAVQNFSSERNPCNSSVPRDLRRPASLIGQEVVLVFFLLLLLVWFLNREFEVSYRLHYHGDVEADLHRTKIQSMRDQADWLLRNIIPYHVAEQLKVSQTYSKNHDSGGVIFASIVNFSEFYEENYEGGKECYRVLNELIGDFDELLSKPDYSSIEKIKTIGATYMAASGLNTAQAQDGSHPQEHLQILFEFAKEMMRVVDDFNNNMLWFNFKLRVGFNHGPLTAGVIGTTKLLYDIWGDTVNIASRMDTTGVECRIQVSEESYRVLSKMGYDFDYRGTVNVKGKGQMKTYLYPKCTDHRVIPQHQLSISPDIRVQVDGSIGRSPTDEIANLVPSVQYVDKTSLGSDSSTQAKDAHLSPKRPWKEPVKAEERGRFGKAIEKDDCDETGIEEANELTKLNVSKSV
POPDC2-Myc (mouse)
  binding: binds
[1]
  binding: binds

B2: POPDC1-Myc (Popeye domain-containing protein 1, Myc-tagged) (protein, UniProt Q9ES83 1-358)
chain: MNSTESIPLAQSTVAGFTSELESLTPVPSNETTCENWREIHHLVFHVANVCFAVGLLIPTTLHLHMILLRVMLSLGCTLYVVWATLYRCALDVMIWNSVFLGINILHLSYLLYKKRPVKIEKELGGVYHRLFEPLRVPPDLFRRLTGQFCMIQTLKRGQVYATEDKTSVDDRLSILLKGRMKVSYRGHFLHNIYPCAFIDSPEFRSTQMHKGEKFQVTIVADDNCRFLCWSRERLTYFLESEPFLYEIFRYLIGKDITNKLYSLNDPTLNDKKVKKLEPQMSLCTQISMLEMRNSITSSSDGEDGLHHFLRGSSSTASLPMSSPQQRASAKMKPIEEGVEDDDEVFVSPDALKVHQLP
[2]
  binding: binds

B3: POPDC2-Myc (protein, UniProt Q9ES82 1-367)
chain: MSANGSSVAQLLWQPPVCRSWKPDVEGAVYHLANCFLLMGFMAGSGVYGCFYLFGILGPGYLCCVLWGWFDACGLDIVLWNVLLTVACLLQLAQLVYRVRVNTLPEEFNLLYRTLCLPLQVPLQVYKEIVHCCHEQVLTLATEQTYAVEGETPINRLSLLLSGRVRVSQDGQFLHYIFPYQFMDSPEWESLHPSEEGTFQVTLTAETECSYISWPRKNLYLLLNRERYISRLFSALLGYDISEKLYTLNDKLFAKFGLRFDIRLPSLYHVLSPSASDGEPESEKDDEEALEAAVSPAQARPICIVPTPPCSAPPATTNFPVPLPRARMPRMPRPDSGNLASRRPLQNSSQVMSRSQAPLAPIHTPEL
[2]
  binding: binds

B4: GFP-tagged AC9 (enzyme, UniProt O60503 1-1353)
chain: MASPPHQQLLHHHSTEVSCDSSGDSNSVRVKINPKQLSSNSHPKHCKYSISSSCSSSGDSGGVPRRVGGGGRLRRQKKLPQLFERASSRWWDPKFDSVNLEEACLERCFPQTQRRFRYALFYIGFACLLWSIYFAVHMRSRLIVMVAPALCFLLVCVGFFLFTFTKLYARHYAWTSLALTLLVFALTLAAQFQVLTPVSGRGDSSNLTATARPTDTCLSQVGSFSMCIEVLFLLYTVMHLPLYLSLCLGVAYSVLFETFGYHFRDEACFPSPGAGALHWELLSRGLLHGCIHAIGVHLFVMSQVRSRSTFLKVGQSIMHGKDLEVEKALKERMIHSVMPRIIADDLMKQGDEESENSVKRHATSSPKNRKKKSSIQKAPIAFRPFKMQQIEEVSILFADIVGFTKMSANKSAHALVGLLNDLFGRFDRLCEETKCEKISTLGDCYYCVAGCPEPRADHAYCCIEMGLGMIKAIEQFCQEKKEMVNMRVGVHTGTVLCGILGMRRFKFDVWSNDVNLANLMEQLGVAGKVHISEATAKYLDDRYEMEDGKVIERLGQSVVADQLKGLKTYLISGQRAKESRCSCAEALLSGFEVIDGSQVSSGPRGQGTASSGNVSDLAQTVKTFDNLKTCPSCGITFAPKSEAGAEGGAPQNGCQDEHKNSTKASGGPNPKTQNGLLSPPQEEKLTNSQTSLCEILQEKGRWAGVSLDQSALLPLRFKNIREKTDAHFVDVIKEDSLMKDYFFKPPINQFSLNFLDQELERSYRTSYQEEVIKNSPVKTFASPTFSSLLDVFLSTTVFLTLSTTCFLKYEAATVPPPPAALAVFSAALLLEVLSLAVSIRMVFFLEDVMACTKRLLEWIAGWLPRHCIGAILVSLPALAVYSHVTSEYETNIHFPVFTGSAALIAVVHYCNFCQLSSWMRSSLATVVGAGPLLLLYVSLCPDSSVLTSPLDAVQNFSSERNPCNSSVPRDLRRPASLIGQEVVLVFFLLLLLVWFLNREFEVSYRLHYHGDVEADLHRTKIQSMRDQADWLLRNIIPYHVAEQLKVSQTYSKNHDSGGVIFASIVNFSEFYEENYEGGKECYRVLNELIGDFDELLSKPDYSSIEKIKTIGATYMAASGLNTAQAQDGSHPQEHLQILFEFAKEMMRVVDDFNNNMLWFNFKLRVGFNHGPLTAGVIGTTKLLYDIWGDTVNIASRMDTTGVECRIQVSEESYRVLSKMGYDFDYRGTVNVKGKGQMKTYLYPKCTDHRVIPQHQLSISPDIRVQVDGSIGRSPTDEIANLVPSVQYVDKTSLGSDSSTQAKDAHLSPKRPWKEPVKAEERGRFGKAIEKDDCDETGIEEANELTKLNVSKSV
[3]
  binding: binds

B5: POPDC1-VN / POPDC1-VC (mouse POPDC1 with a half of Venus for BiFC) (protein, UniProt Q9ES83 1-358)
chain: MNSTESIPLAQSTVAGFTSELESLTPVPSNETTCENWREIHHLVFHVANVCFAVGLLIPTTLHLHMILLRVMLSLGCTLYVVWATLYRCALDVMIWNSVFLGINILHLSYLLYKKRPVKIEKELGGVYHRLFEPLRVPPDLFRRLTGQFCMIQTLKRGQVYATEDKTSVDDRLSILLKGRMKVSYRGHFLHNIYPCAFIDSPEFRSTQMHKGEKFQVTIVADDNCRFLCWSRERLTYFLESEPFLYEIFRYLIGKDITNKLYSLNDPTLNDKKVKKLEPQMSLCTQISMLEMRNSITSSSDGEDGLHHFLRGSSSTASLPMSSPQQRASAKMKPIEEGVEDDDEVFVSPDALKVHQLP
[4]
  binding: binds
